Test results: US20240262879A1
These are yes or no findings as the source states them, for the method shown. Some entries that bind do so weakly or less than the wild type.

Protein sequences, listed by entry. Tags and fused reporters are not part of them. Lines headed by an entry give the natural chain unless they say otherwise; changes in a name come on top.
UniProt P29459: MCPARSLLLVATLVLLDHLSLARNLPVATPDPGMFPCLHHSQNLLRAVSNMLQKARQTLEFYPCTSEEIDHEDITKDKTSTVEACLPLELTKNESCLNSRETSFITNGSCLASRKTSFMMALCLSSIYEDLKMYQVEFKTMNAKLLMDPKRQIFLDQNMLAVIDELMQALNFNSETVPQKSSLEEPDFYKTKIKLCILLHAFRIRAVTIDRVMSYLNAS

B1: BI-021 (VHH)
VHH: EVQLVESGGGLVQPGGSLRLSCASPGSISTLYVMGWYRQAPGKQRDLVARITRGGSTSYANSVKGRFTISRDNVNNTINLQMNSLKPEDTAVYYCYAQTAVGPDYWGQGTQVTVSS
B2: BI-031 (VHH)
VHH: QVQLVESGGGLVQPGGSLRLSCAAPGSIATLYVMGWYRQAPGKQRELVARITRGGSTSYANAVKGRFTISRDNAKNTVNLQMNSLKPEDTAIYYCNAQTAVGPDYWGQGTQVTVSS
B3: BI-022 (VHH)
VHH: QVQLVESGGGLVQAGGSLRLSCAASGSIFSTLNAIGWYRQAPGKQAELVARITHDGRIVYGDSVKGRFTISRDNAKNTAYLQMNSLNPEDTAVYFCVAPGMVRGQGTQVTVSS
B4: BI-012 (VHH)
VHH: QVQLVESGGGLVQPGGSLRLSCAASGRTLSSYTMAWFRQAPGKEREFVATISPVGFIMDYADSVKGRFTISRDNTKNTVYLQMNSLKHEDTALYYCATDLGRKLGTQSREYGYWGQGTQVTVSS
B5: BI-025 (VHH)
VHH: EVQLVESGGGLVQPGGSLRLSCAASGRTLSSYTMAWFRQAPGKEREFVATISPVGFIMDYADSVKGRFTISRDNTKNTVYLQMNSLKHEDTALYYCATDLGRKLGTQSCEYGYWGQGTQVTVSS
B6: BI-037 (VHH)
VHH: EVQLVESGGGLVQAGDSLRLSCAASGRTFSTYVMGWFRQAPGKEREFVAYISTGGLISDHADSVKGRFTISRDNAKNTVYLQMNSLRPEDTAVYYCAAASRTRRPIATIKDEYDYWGQGTQVTVSS
B7: BI-002 (VHH)
VHH: EVQLVESGGGLVQPGGSLRLSCAASGFTFSSYYMYWIRQAPGKGLEWVSTIKPNGSGIYGNSVAGRFTISRDNAKNMLYLQMNMLRPEDTALYYCARDVRGTVRGQGTQVTVSS
B8: BI-010 (VHH)
VHH: QVQLVESGGGSVQVGGSLRLSCVGSGRTLNMYNMGWFRQAPGKEREFVAAISGKGLISDYRDSVKGRFTISRDNARNTMYLQMNSLKPEDTAVYHCAAGQWSAGPFTRERSYEYWGQGTQVTVSS
B9: BI-014 (VHH)
VHH: EVQLVESGGGSVQVGGSLRLSCVASGRTFNMYVMGWFRQAPGKEREFVAAISGEGLISDYRDSVKGRFTISRDNAKNTMYLQMNSLKPEDTAVYHCAAGQWTNGPFTRERTYEYWGQGTQVTVSS
B10: BI-035 (VHH)
VHH: QVQLVESGGGLVQPGGSLRLSCAASGSIAEIYVMGWYRQAPGKQREIVATTPSSGRTNIADSVKGRFIISRDFVKNTVALQMNSLKPEDTAVYYCYARLTPTSVASWGPGTQVTVSS
B11: BI-033 (VHH)
VHH: EVQLVESGGGLVQAGGSLRLSCAASGRTFSAYVMGWFRQTPGKGREFVAAISTGGQISDYANSVKGRFTISRDNAKNTAYLQMNNLKPEDTAVYYCAANRENFLNRGAGDYEYWGQGTQVTVSS
B12: BI-003 (VHH)
VHH: QVQLVESGGGLVQPGGSLRLSCAASGNQLSLYNMGWYRQAPGKQRELVASISRAGRSSYGDSVKGRFTISRDNAKNTVYLQMSSLKPEDTAVYYCKASFLDDYWGQGTQVTVSS
B13: BI-016 (VHH)
VHH: EVQLVESGGGLVQPGGSLRLSCAASGRTFSSRAMGWFRQAPGKEREFVAAISFGGGTIRYADSVKGRFTISRDDAKNTVYLQMNSLKPEDTAVYYCAARRLHIATLAADFDSWGQGTQVTVSS
B14: BI-036 (VHH)
VHH: EVQLVESGGGSVQAGGSLRLSCATSGRGFSTYAMGWFRQAPGKEREFVAAISFGGGTVRYVDSVKGRFTISRDDAKGTVYLQMNSLKPEDTAVYYCAARRLHIATLAADFGSWGQGTQVTVSS
B15: BI-027 (VHH)
VHH: QVQLVESGGGSVQAGGSLRLSCAASGRTFSSRAMGWFRQAPGKEREFVAAISFGGGTIRYADSVKGRFTISRDDAKNTVYLQMNSLKPEDTAVYYCAARRLHIATLAADFDSWGQGTQVTVSS
B16: BI-001 (VHH)
VHH: QVQLVESGGGLVQPGGSLRLSCAASGREFTSVSMAWFRQRPGKEREFVAFSARISETTEYADFVKGRFTIWRDNANAKVTVYLQMNNLKPEDTGVYYCAASEGPATIRQNTYPDWGQGTQVTVSS
B17: BI-018 (VHH)
VHH: EVQLVESGGGLVEAGGSLRVSCAASGGTFSEYAMGWIRQAPGKEREFVAGISRGAGRTVYADSVKGRFTISRDNHKNTVYLQMNSLKPEDTAVYYCGADDVSYNRVTTAPGEYDYWGQGIQVTVSS
B18: BI-039 (VHH)
VHH: QVQLVESGGGLVQAGGSLRLSCAASGRTFETIAMGWFRQVPGKEREFVAVIRGSGVATYYPDSVKGRFTISKDSAKNTVYLQMNNLKPEDTAVYYCAATTNRFKNTDYTTYDYWGQGTQVTVSS
B19: BI-023 (VHH)
VHH: QVQLVESGGGLVQAGDSLRLSCTASGRTLTLSMVTVGWFRQGSGKEREFVAAISWRGGRSYVADDVKGRFTISRDNARNTVYLQMNSVKPEDTAVYYCAAREAIQDLAWTANDFTYWGQGTQVTVSS
B20: BI-038 (VHH)
VHH: EVQLVESGGGLVQAGDSLRLSCTASGRTLTLSMVTVGWFRQGSGKEREFVAAISWRGGRSSVADDVKGRFTISRDNARNTVYLQMNSVKPEDTAVYYCAARTAIQDLAWTANDFTYWGQGTQVTVSS
B21: BI-017 (VHH)
VHH: EVQLVESGGGLVQAGGSLRLSCSASGRSLNDYIVGWFRQAPGKERELVAAISSGGYIQHYIDSVKGRFTISRDNAKNTVYLQMNGLKPEDTAVYYCAANQLNGVARKKIESDDYDYWGQGTQVTVSS
B22: BI-011 (VHH)
VHH: EVQLVESGGGLVQAGGSLRLSCAASGRTFSRWTMAWFRQAPGKERDFVAAVGWWNDSTYYADSVKGRFTISRDNNENTLYLQMNSLKPEDTAVYICASTEKYGLGQPNPRRYDYWGQGTQVTVSS
B23: BI-026 (VHH)
VHH: EVQLVESGGGLVQPGGSLRLSCVASGSTGSITSMAWYRQAPGKQRELVASINSGGRPNYQESVKGRFTISRDNAENTLYLQMNSLSPEDTAVYLCNLRGLRLDTGLYESWGQGTQVTVSS
B24: BI-034 (VHH)
VHH: QVQLVESGGGLVQPGGSLRLSCVASGSTGSITSMAWYRQAPGKQRELVASINSGGRPNYQESVKGRFTISRDNAENTLYLQMNSLSPEDTAVYLCNLRGLRLDTGLYESWGQGTQVTVSS
B25: BI-013 (VHH)
VHH: EVQLVESGGGLVQAGGSLRLSCAASGRTFSTYAVGWFRQAPGKEREFVAAISWGGGTVRYADSVKGRSTISRDDAKNTVYLQMNSLKPEDTAIYYCAARVLHIATKAVDFGSWGQGTQVTVSS
B26: BI-028 (VHH)
VHH: EVQLVESGGGLVQTGGSLRLSCAASGLTNGYVMAWFRQAPGKEREFVSGIGWGSSRTYYADSVKGRFTISRDNAINTVALQMNSLKPEDTAVYYCAAQGRISPIYTRANEYPYWGQGTQVTVSS
B27: BI-009 (VHH)
VHH: EVQLVESGGGLVHPGGSLRLSCVASGFRFTPYTMGWYRQAPGKQRELVASISSVYSTNYADSVKGRFTVSRDNVKGTVSLQMNSLKPEDTAVYYCNAPGLLHEEGTDYWGQGTQVTVSS
B28: BI-029 (VHH)
VHH: QVQLVESGGGLVQPGGSLRLSCAASGFTFSSYGMSWYRQAPGKEHELVAGISAGSTKYADSVKGRFTISRDNAKKTVYLQMNSLKPEDTAVYYCSRWPRLFEDWGQGTQVTVSS
B29: BI-015 (VHH)
VHH: EVQLVESGGGLVQPGGSLRLSCAASGRDFDRSTMAWYRQAPGKQRELVASIPSDIGTKYADSVKGRFFISRVYAKNTNTVYLQMNSLKPEDTAVYYCYAHIDSDYWGQGTQVTVSS
B30: BI-019 (VHH)
VHH: EVQLVESGGGAVQAGGALKLSCAYSGRAFSRSLMGWFRQAPGKEREFVAAISWVSVTPDYGDSVKGRFTISRDNAKSTVTLQMNSLKPEDTAVYYCAASERYGTPRRRPNDYDYWGQGTQVTVSS
B31: BI-020 (VHH)
VHH: EVQLVESGGGLVQPGGSLRLSCVASGSIGSITSMAWYRQGTGKQRELVASISSGGRPSYQDSVKGRFTISRDNAENTVYLQMNSLKPEDTAVYHCNVRGLHLDTGLYESWGQGTQVTVSS
B32: BI-030 (VHH)
VHH: EVQLVESGGGLVQPGGSLRLSCVASGDIGSMTSTGWYRQAPGKQRDLVASINSGGRPNYQDSVKGRFTISRDSAKNTVYLQMNSLKPEDTAVYYCNLRGLVLSTGLYESWGQGTQVTVSS

Molecular target: Interleukin-12 (IL-12) (human) (UniProt P29459)
Assay: phage panning of the immune-derived llama VHH library against IL-12

binding, binds:
B1
B2
B3
B4
B5
B6
B7
B8
B9
B10
B11
B12
B13
B14
B15
B16
B17
B18
B19
B20
B21
B22
B23
B24
B25
B26
B27
B28
B29
B30
B31
B32
